Results deposited as PubChem BioAssay AID1259327 (Drosophila RNAi Screening Center, 2017).

Test: 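Baseline ATP after transmembrane-protein gene knock-down with water vehicle only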
System: Drosophila S2R+ cells
Knock-down reagent: long dsRNA against Drosophila genes
Duration: 5 days (water added on day 4, read one day later)
Conditions: water added as vehicle, no metal, one day before read-out
Measured: 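Total ATP measured by luciferase light, scaled to plate mean, duplicates averaged, then z-scored across plates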
Direction: ATP z-score: higher = more total ATP than typical wells; ATP luminescence: higher = more total ATP
Hit rule: 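Called active when the ATP z-score exceeds 1.5 or falls below -1.5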
Meaning of the calls: active = hit: ATP up or down; inactive = no clear ATP change
This is a random part of about 3,100 reagents. 378 of them (12%) were called active. 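Hits include both directions; z-score sign shows ATP rise or fall; raw luminescence values are not plate-normalised.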 Entries without a mark were called inactive. Names joined by + are all predicted targets of the reagent. The record does not give: the amount of reagent.

target	dsRNA	ATP z-score, duplicate mean	ATP luminescence, replicate 1 (RLU)	ATP luminescence, replicate 2 (RLU)
CG32983 (GeneID 50434)	DRSC22367	0.197	8.78e5	8.71e5
SdhCL (GeneID 41324)	DRSC16078	-0.63	2.80e5	6.71e5
SdhCL (GeneID 41324)	DRSC39758	-0.0841	4.48e5	4.71e5
Elk (GeneID 37047)	DRSC07608	0.409	7.79e5	7.71e5
Elk (GeneID 37047)	DRSC39479	2.38 (active)	6.99e5	5.26e5
CG4025 (GeneID 31177)	DRSC18523	1.31	7.40e5	8.69e5
CG31998 (GeneID 43774)	DRSC17137	-0.248	7.44e5	6.18e5
CG31998 (GeneID 43774)	DRSC17138	3.21 (active)	6.91e5	1.04e6
KCNQ (GeneID 36071)	DRSC06230	-0.736	5.09e5	5.97e5
KCNQ (GeneID 36071)	DRSC25242	-1.35	7.53e5	6.12e5
CG12490 + CG30265	DRSC25712	1.01	1.12e6	9.69e5
msk (GeneID 44747)	DRSC11340	0.708	8.25e5	7.88e5
msk (GeneID 44747)	DRSC23929	-0.812	7.74e5	7.24e5
nes (GeneID 40093)	DRSC11375	-0.788	8.28e5	7.59e5
nes (GeneID 40093)	DRSC39655	-0.265	4.15e5	4.81e5
CG2519 (GeneID 40666)	DRSC12312	0.656	8.47e5	7.54e5
uzip (GeneID 38002)	DRSC04722	-0.063	6.90e5	7.60e5
uzip (GeneID 38002)	DRSC30045	-1.76 (active)	4.14e5	4.48e5
rst (GeneID 31290)	DRSC17243	-0.348	8.81e5	8.21e5
rst (GeneID 31290)	DRSC18828	-0.991	5.57e5	7.41e5
rst (GeneID 31290)	DRSC39453	1.22	5.13e5	5.53e5
Shaw (GeneID 33599)	DRSC00433	-0.912	6.24e5	6.35e5
Shaw (GeneID 33599)	DRSC00788	-0.535	5.29e5	8.49e5
Shaw (GeneID 33599)	DRSC21368	-2.12 (active)	3.92e5	4.09e5
Ent2 (GeneID 33921)	DRSC28879	1.93 (active)	1.11e6	1.01e6
Ent2 (GeneID 33921)	DRSC39799	-1.61 (active)	3.52e5	3.82e5
Ant2 (GeneID 32008)	DRSC26446	-1.31	6.48e5	7.25e5
smo (GeneID 33196)	DRSC00837	-0.347	4.01e5	5.12e5
smo (GeneID 33196)	DRSC28492	-0.232	8.26e5	7.67e5

Next part, starting with the last 2 of the part before.
target	dsRNA	ATP z-score, duplicate mean	ATP luminescence, replicate 1 (RLU)	ATP luminescence, replicate 2 (RLU)
smo (GeneID 33196)	DRSC00837	-0.347	4.01e5	5.12e5
smo (GeneID 33196)	DRSC28492	-0.232	8.26e5	7.67e5
CG4907 (GeneID 42686)	DRSC15673	0.489	3.09e5	8.45e5
CG4907 (GeneID 42686)	DRSC39746	0.855	4.70e5	5.78e5
CG6978 (GeneID 31413)	DRSC18409	0.681	7.50e5	7.81e5
CG6978 (GeneID 31413)	DRSC39567	1.15	5.71e5	5.14e5
gogo (GeneID 40225)	DRSC10070	1.81 (active)	1.22e6	1.05e6
gogo (GeneID 40225)	DRSC10071	0.232	7.34e5	8.03e5
Sur (GeneID 34350)	DRSC03447	2.07 (active)	5.91e5	6.60e5
Sur (GeneID 34350)	DRSC27276	-0.278	7.62e5	8.64e5
Cse1 (GeneID 35016)	DRSC26857	-0.428	6.86e5	7.53e5
Or33b (GeneID 34602)	DRSC03387	1.06	8.88e5	7.90e5
VhaAC45RP (GeneID 318563)	DRSC15423	0.826	7.91e5	8.36e5
VhaAC45RP (GeneID 318563)	DRSC26986	-1.54 (active)	8.99e5	1.16e6
Gr10b (GeneID 32085)	DRSC19477	2.51 (active)	8.53e5	8.09e5
Gr10b (GeneID 32085)	DRSC28702	0.534	9.39e5	8.39e5
emb (GeneID 34167)	DRSC03528	3.09 (active)	6.37e5	7.59e5
CG5810 (GeneID 42513)	DRSC21921	-1.74 (active)	4.22e5	4.43e5
CG5810 (GeneID 42513)	DRSC39633	-0.356	4.52e5	4.29e5
Atf-2 + CG44247	DRSC04130	0.3	7.44e5	7.83e5
Atf-2 + CG44247	DRSC04413	-0.65	6.15e5	6.99e5
chk (GeneID 35578)	DRSC04994	0.335	7.09e5	8.27e5
S (GeneID 33281)	DRSC24973	-1.58 (active)	6.65e5	6.43e5
S (GeneID 33281)	DRSC39484	2.02 (active)	6.79e5	5.00e5
RyR (GeneID 49090)	DRSC07543	-0.711	5.78e5	5.32e5
RyR (GeneID 49090)	DRSC39632	1.19	5.24e5	5.68e5
AstA-R2 (GeneID 43393)	DRSC24820	0.329	9.37e5	8.45e5
rasp (GeneID 44098)	DRSC08191	-0.124	8.80e5	8.79e5
rasp (GeneID 44098)	DRSC39831	-0.71	4.69e5	3.86e5
NPFR (GeneID 40754)	DRSC12173	-0.548	8.29e5	8.19e5
Syngr (GeneID 36533)	DRSC06003	3.7 (active)	1.08e6	8.29e5
Syngr (GeneID 36533)	DRSC39806	-1.11	3.84e5	4.19e5
egh (GeneID 31239)	DRSC18771	-1.91 (active)	6.93e5	6.93e5
egh (GeneID 31239)	DRSC29898	-1.49	4.63e5	4.44e5
CG4942 (GeneID 39044)	DRSC10462	1.12	8.48e5	8.54e5
CG4942 (GeneID 39044)	DRSC39879	2.23 (active)	6.80e5	8.80e5
5-HT2B (GeneID 41017)	DRSC16360	-0.506	2.54e5	7.64e5
5-HT2B (GeneID 41017)	DRSC16362	-0.819	2.60e5	6.80e5
5-HT2B (GeneID 41017)	DRSC25577	-0.764	7.21e5	7.90e5
CG9536 (GeneID 33904)	DRSC03254	-0.254	4.39e5	4.85e5
CG9536 (GeneID 33904)	DRSC24736	-0.563	8.49e5	7.11e5
